The text below walks through data of article PMC8510536.

Amino acid sequences for entries named in this document (tags omitted). A change or cut given only in a name is not applied to a line headed by its entry.
UniProt J9VUC9: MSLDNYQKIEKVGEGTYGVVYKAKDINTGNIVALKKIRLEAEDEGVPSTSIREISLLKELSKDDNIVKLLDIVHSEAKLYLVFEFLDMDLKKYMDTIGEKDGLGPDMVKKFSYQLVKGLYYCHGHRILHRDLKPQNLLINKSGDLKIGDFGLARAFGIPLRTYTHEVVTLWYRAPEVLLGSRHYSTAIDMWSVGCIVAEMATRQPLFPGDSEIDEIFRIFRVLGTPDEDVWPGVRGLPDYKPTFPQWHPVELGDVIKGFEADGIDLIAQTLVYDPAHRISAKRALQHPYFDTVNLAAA
UniProt J9VV14: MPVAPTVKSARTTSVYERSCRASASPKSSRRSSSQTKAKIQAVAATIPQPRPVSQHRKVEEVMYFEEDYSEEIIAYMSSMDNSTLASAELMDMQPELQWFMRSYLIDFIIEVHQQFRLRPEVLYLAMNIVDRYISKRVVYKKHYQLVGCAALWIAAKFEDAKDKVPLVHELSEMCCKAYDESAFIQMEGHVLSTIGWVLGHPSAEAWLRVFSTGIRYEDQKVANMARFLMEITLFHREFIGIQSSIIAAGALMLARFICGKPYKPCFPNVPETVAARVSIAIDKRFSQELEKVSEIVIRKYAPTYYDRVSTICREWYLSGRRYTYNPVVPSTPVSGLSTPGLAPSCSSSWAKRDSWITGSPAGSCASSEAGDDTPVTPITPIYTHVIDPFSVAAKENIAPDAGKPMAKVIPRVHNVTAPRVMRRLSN

For this test, the target named is Cdk1-Myc (C. neoformans) (UniProt J9VUC9). The experiment in a line: co-IP; Lysates of the CLN1-His6 CDK1-Myc strain collected at 0 to 90 min (15-min intervals) after release from stationary phase into fresh YPD; Cdk1-Myc precipitated with the Pierce c-Myc-tag IP/co-IP kit; Cln1-His6 detected by near-infrared Western blot with anti-His antibody; CDK1-Myc strain lysate as negative control.

These are yes or no findings as the source states them, for the method shown. Binding seen in cells or lysates may run through a third protein. Binding calls can cover weak binding; strength is not graded here.

In the case of Cln1-His6 (from UniProt J9VV14), the binding entry is reported as “binds”.
